For at least one compound, name, drawing or mass did not settle the structure.
Test system: cancer cells
Experiment: 5caC levels on chemotherapeutic treatment combined with TDG downregulation/inhibition
Type: cell-based
Description: Vincristin is an inhibitor of mitosis that arrests cells in metaphase; it is used as a chemotherapeutic agent for leukemia/lymphoma and melanoma.

## Cn1nnc2c(C(N)=O)ncn2c1=O [temozolomide]
  5caC levels, temozolomide combined with TDG downregulation: dramatic increase
